No constants are given. Whether binding was seen depends on the method and setting. Some entries that bind do so weakly or less than the wild type. Values belong to the binder of their own block, whether it stands above or below them.
Experiments:
[1] = biological target: mouse CD40 on T cells (Th40 cells), B cells and PBMC of NOD or C57BL/6 mice (mouse) (UniProt P27512); test: flow cytometry, FITC-conjugated KGYY6 on PBMC, dLN and splenic lymphocytes
[2] = biological target: mouse CD40 on T cells (Th40 cells), B cells and PBMC of NOD or C57BL/6 mice (mouse) (UniProt P27512); test: flow cytometry, FITC-conjugated KGYY6 on PBMC
[3] = biological target: mouse CD40 on T cells (Th40 cells), B cells and PBMC of NOD or C57BL/6 mice (mouse) (UniProt P27512); test: flow cytometry, FITC-conjugated KGYY6 on cells of EAE-induced C57BL/6 mice
[4] = biological target: mouse CD40 on T cells (Th40 cells), B cells and PBMC of NOD or C57BL/6 mice (mouse) (UniProt P27512); test: flow cytometry, FITC-conjugated KGYY6
[5] = biological target: mouse CD40 on T cells (Th40 cells), B cells and PBMC of NOD or C57BL/6 mice (mouse) (UniProt P27512); test: flow cytometry, PBMC of C57BL/6 mice (non-induced, 6 and 13 days post EAE induction) stained with FITC-conjugated KGYY6, compared with B6.CD40KO PBMC
[6] = biological target: mouse CD40 on T cells (Th40 cells), B cells and PBMC of NOD or C57BL/6 mice (mouse) (UniProt P27512); test: flow cytometry, FITC-labeled peptide on NOD mouse lymphocytes

By UniProt entry, the sequences of proteins in these tests, tags left out. Residues count along the entry.
UniProt P27512, residues 20-289: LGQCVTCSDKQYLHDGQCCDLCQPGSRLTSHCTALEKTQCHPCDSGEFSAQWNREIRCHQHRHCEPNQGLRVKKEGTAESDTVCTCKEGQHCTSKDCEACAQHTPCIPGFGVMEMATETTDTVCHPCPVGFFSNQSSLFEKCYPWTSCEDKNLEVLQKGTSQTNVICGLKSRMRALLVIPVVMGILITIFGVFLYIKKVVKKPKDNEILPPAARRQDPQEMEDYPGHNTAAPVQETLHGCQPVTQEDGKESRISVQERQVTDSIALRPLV

binding [1]: binds
binding [2]: binds
binding [3]: binds
binding [4]: binds
binding [5]: binds
B1: FITC-conjugated KGYY6 peptide (peptide)
peptide: AKKGYY
modifications: FITC-conjugated (site of the label not stated)

binding [6]: binds
B2: FITC-labeled 15-mer peptide from mouse CD154 (peptide)
peptide: VLQWAKKGYYTMKSN
modifications: FITC-labeled (site of the label not stated)
